Tested on: PAX3/NCOA1

**Q.** CO[C@@H]1[C@H](N(C)C(=O)c2ccccc2)C[C@H]2O[C@]1(C)n1c3ccccc3c3c4c(c5c6ccccc6n2c5c31)C(=O)NC4 [PKC412, N-[(9S,10R,11R,13R)-2,3,10,11,12,13-hexahydro-10-methoxy-9-methyl-1-oxo-9,13-epoxy-1H,9H-diindolo[1,2,3-gh:3′,2′,1′-Im]pyrrolo[3,4-j][1,7]benzodiazonin-11-yl]-N-methylbenzamide] was tested. Which “inhibition with PAX3/NCOA1” value did it give?
**A.** inhibition was also observed

Reference: patent US7973032B2, “Staurosporine derivatives for use in alveolar rhabdomyosarcoma” (University of Zurich, priority 2005, dated 2011)
